Values joined by “and” are separate entries in the source; they are usually repeats but may differ in a detail not shown here. Equal values may be shown once.
Legend:
hTA1 [1] = biological target: T1, hTA1 (Homo sapiens, UniProt Q96RJ0); assay: Screen of 89 aminergic compounds at 10 µM, cAMP accumulation in HEK293T cells; type: cell-based;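 further: HEK293T cells co-transfected with hTA1 and GloSensor cAMP reporter, cAMP accumulation detected by luminescence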
T1 construct: expressed in transfected cells; host or cells: HEK293T
T1 sequence (Q96RJ0 1-339): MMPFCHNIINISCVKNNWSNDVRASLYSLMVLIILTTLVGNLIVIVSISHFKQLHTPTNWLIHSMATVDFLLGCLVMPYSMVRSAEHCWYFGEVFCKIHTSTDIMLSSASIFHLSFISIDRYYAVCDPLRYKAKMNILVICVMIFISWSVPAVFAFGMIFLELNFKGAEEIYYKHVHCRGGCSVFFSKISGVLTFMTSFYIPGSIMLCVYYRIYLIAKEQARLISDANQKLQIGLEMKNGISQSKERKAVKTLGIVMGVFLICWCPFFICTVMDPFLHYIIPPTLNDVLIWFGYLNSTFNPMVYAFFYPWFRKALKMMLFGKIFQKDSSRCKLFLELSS

hTA1 [2] = biological target: T1, hTA1; assay: GloSensor cAMP accumulation assay, concentration response, wild-type hTA1 in transfected HEK293T cells; type: cell-based; settings: log[Compound], replicate wells;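 further: luminescence read after 30 min compound exposure at room temperature in cells preloaded with D-Luciferin, reflecting Gs-driven cAMP rise, efficacy scaled to the maximal β-PEA response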

## CCN(CC)C(=O)N[C@H]1C=C2c3cccc4[nH]cc(c34)C[C@H]2N(C)C1 [lisuride]
hTA1 [1]
  Luminescence for Screening Data: 16.9 and 13.7 and 18.8 and 14.5
  increase of signal over DMSO-treated controls (hTA1 activation): ≥ 4 fold
hTA1 [2]; M = -5
  Normalized Luminescence Counts for WT hTA1: 9.855 and 8.9709 and 7.628
hTA1 [2]; M = -5.522
  Normalized Luminescence Counts for WT hTA1: 4.878 and 5.304 and 4.845
hTA1 [2]; M = -6
  Normalized Luminescence Counts for WT hTA1: 1.244 and 1.047 and 1.211
hTA1 [2]; M = -6.522
  Normalized Luminescence Counts for WT hTA1: 0.1961 and 0.7527 and 1.5058
hTA1 [2]; M = -7
  Normalized Luminescence Counts for WT hTA1: 0.06517 and 0.4253 and 0.2616
hTA1 [2]; M = -7.522
  Normalized Luminescence Counts for WT hTA1: -0.6551 and -0.4587 and 0.589
hTA1 [2]; M = -8
  Normalized Luminescence Counts for WT hTA1: 0.1961 and 0.2944 and 0.2616
hTA1 [2]; M = -8.522
  Normalized Luminescence Counts for WT hTA1: -0.03305 and -0.426 and -0.2295
hTA1 [2]; M = -9
  Normalized Luminescence Counts for WT hTA1: -0.2622 and -0.1313 and -0.426
hTA1 [2]; M = -9.522
  Normalized Luminescence Counts for WT hTA1: -0.1313 and -0.4914 and 0.09791
hTA1 [2]; M = -10
  Normalized Luminescence Counts for WT hTA1: 0.2944 and -0.1313 and -0.0003118
hTA1 [2]; M = -10.522
  Normalized Luminescence Counts for WT hTA1: 0.4253 and 0.1634 and 0.1307
hTA1 [2]; M = -11
  Normalized Luminescence Counts for WT hTA1: -0.03305 and 0.2616 and -0.4587
hTA1 [2]; M = -11.522
  Normalized Luminescence Counts for WT hTA1: 0.2289 and -0.426 and -0.1313
hTA1 [2]; M = -12
  Normalized Luminescence Counts for WT hTA1: -0.164 and -0.1313 and -0.4914
hTA1 [2]; M = -12.522
  Normalized Luminescence Counts for WT hTA1: 0.3926 and -0.4914 and -0.2295
